Data on five compounds can be found in US20090312521A1 (priority 2004, published 2009).

Non-standard residues stand in square brackets, D forms with d. Residues, ends and D or L forms follow the SMILES beside them.

The format of this series is in vitro ADME, human. The note with it: [MIC(1)/MIC(X)] × [% intact(X)/% intact(1)].
Turning to `CC[C@H](C)[C@H](NC(=O)[C@@H]1CCCN1C(=O)[C@H](CCCNC(=N)N)NC(=O)[C@@H]1CCCN1C(=O)[C@H](Cc1c[nH]cn1)NC(=O)[C@H](CO)NC(=O)[C@@H](NC(=O)[C@@H]1CCCN1C(=O)[C@H](CCCNC(=N)N)NC(=O)[C@@H]1CCCN1C(=O)[C@@H](NC(=O)[C@H](Cc1ccc(O)cc1)NC(=O)[C@@H]1CCCN1C(=O)[C@H](CCCNC(=N)N)NC(=O)[C@@H]1CCCN1C(=O)[C@H](CCCCN)NC(=O)CN)[C@@H](C)O)[C@@H](C)O)C(=O)N[C@@H](CCCNC(=N)N)C(=O)N[C@H](C(=O)O)C(C)C` [Peptide 4, GKPRP YTPRP TSHPR PIRV] (H-GKPRPYTPRPTSHPRPIRV-OH; N-terminus assumed), the index was found to be 19.

Turning to `CC[C@H](C)[C@H](NC(=O)[C@@H]1CCCN1C(=O)[C@H](CCCNC(=N)N)NC(=O)[C@@H]1CCCN1C(=O)[C@H](Cc1c[nH]cn1)NC(=O)[C@H](CO)NC(=O)[C@@H](NC(=O)[C@@H]1CCCN1C(=O)[C@H](CCCNC(=N)N)NC(=O)[C@@H]1CCCN1C(=O)[C@H](CO)NC(=O)[C@@H](Cc1ccc(O)cc1)NC(=O)[C@@H]1CCCN1C(=O)[C@H](CCCNC(=N)N)NC(=O)[C@@H]1CCCN1C(=O)[C@H](CCCCN)NC(=O)CN)[C@@H](C)O)C(=O)N[C@@H](CCCNC(=N)N)C(=O)N[C@H](C(=O)O)C(C)C` [Peptide 6, GKPRP DYSPRP TSHPR PIRV] (H-GKPRP[dY]SPRPTSHPRPIRV-OH; N-terminus assumed), the index is given as 5.

Compound `CC[C@H](C)[C@H](NC(=O)[C@@H]1CCCN1C(=O)[C@H](CCCNC(=N)N)NC(=O)[C@@H]1CCCN1C(=O)[C@H](Cc1c[nH]cn1)NC(=O)[C@H](CO)NC(=O)[C@@H](NC(=O)[C@@H]1CCCN1C(=O)[C@H](CCCNC(=N)N)NC(=O)[C@@H]1CCCN1C(=O)[C@@H](NC(=O)[C@H](Cc1ccccc1)NC(=O)[C@@H]1CCCN1C(=O)[C@H](CCCNC(=N)N)NC(=O)[C@@H]1CCCN1C(=O)[C@H](CCCCN)NC(=O)CN)[C@@H](C)O)[C@@H](C)O)C(=O)N[C@@H](CCCNC(=N)N)C(=O)N[C@H](C(=O)O)C(C)C` [Peptide 5, GKPRP FTPRP TSHPR PIRV] (H-GKPRPFTPRPTSHPRPIRV-OH; N-terminus assumed) showed an index of 17.

Consider `CC[C@H](C)[C@H](NC(=O)[C@@H]1CCCN1C(=O)[C@H](CCCNC(=N)N)NC(=O)[C@@H]1CCCN1C(=O)[C@H](Cc1c[nH]cn1)NC(=O)[C@H](CO)NC(=O)[C@@H](NC(=O)[C@@H]1CCCN1C(=O)[C@H](CCCNC(=N)N)NC(=O)[C@@H]1CCCN1C(=O)[C@H](CO)NC(=O)[C@H](Cc1ccccc1)NC(=O)[C@@H]1CCCN1C(=O)[C@H](CCCNC(=N)N)NC(=O)[C@@H]1CCCN1C(=O)[C@H](CCCCN)NC(=O)CN)[C@@H](C)O)C(=O)N[C@@H](CCCNC(=N)N)C(=O)N[C@H](C(=O)O)C(C)C` [Peptide 3, GKPRP FSPRP TSHPR PIRV] (H-GKPRPFSPRPTSHPRPIRV-OH; N-terminus assumed), for which the index worked out at 12.

In turn, `CC[C@H](C)[C@H](NC(=O)[C@@H]1CCCN1C(=O)[C@H](CCCNC(=N)N)NC(=O)[C@@H]1CCCN1C(=O)[C@H](Cc1cnc[nH]1)NC(=O)[C@H](CO)NC(=O)[C@@H](NC(=O)[C@@H]1CCCN1C(=O)[C@H](CCCNC(=N)N)NC(=O)[C@@H]1CCCN1C(=O)[C@H](CO)NC(=O)[C@H](Cc1ccc(O)cc1)NC(=O)[C@@H]1CCCN1C(=O)[C@H](CCCNC(=N)N)NC(=O)[C@@H]1CCCN1C(=O)[C@H](CCCCN)NC(=O)CN)[C@@H](C)O)C(=O)N[C@@H](CCCNC(=N)N)C(=O)N[C@H](C(=O)O)C(C)C` [Peptide 1, GKPRP YSPRP TSHPR PIRV, reference compound] (H-GKPRPYSPRPTSHPRPIRV-OH) came in with an index of 1.0.
